Measurements: PubChem BioAssay AID2685 (National Center for Advancing Translational Sciences (NCATS), 2010)
The campaign covered roughly 320,000 compounds. About 2,100 (0.66%) were called active. This list was built around the results that the source calls inconclusive (neither active nor inactive); the mix of calls is not that of the screen. Calls follow the shape of the dose curve; as a rule, active = well fitted inhibition curve with a large enough effect in the signal ratio, with a control signal flat (not every such curve was filed as active); inconclusive = small, poorly fitted or top-dose-only effect, or effect the other way, or a change in a side signal; inactive = flat fitted curve, though single readings scatter; the % refers to the signal ratio. Potencies of inconclusive entries are doubtful fits and often do not repeat.

Assay: qHTS Assay for Lipid Storage Modulators in Drosophila S3 Cells
Details: BODIPY lipid droplet fluorescence, 18-24 h, cells fed with added oleic acid; lipid storage change, negative = inhibition: at 46.1 µM (top of the series) unless noted
How it was run: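 Drosophila S3 cells got compounds at several concentrations plus oleic acid (400 uM solution). Laser-scanning cytometry with 488 nm excitation read lipid droplets at 500-530 nm and cells at 575-640 nm. Percent activity was relative to 20 uM Triacsin C.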
% is scaled to controls: 0 for no effect and ±100 for the full control effect; potency is read from the fitted curve at half-maximal effect.

SMILES	Potency	lipid storage change, negative = inhibition	outcome
COC(=O)c1ccc(/C=C2/SC(=S)N(CCCC(=O)Nc3ccc(O)cc3)C2=O)cc1	inconclusive: 6.51 µM [activator, partial curve, poor fit]		
Fc1ccc(COc2ccc(Br)cc2CNCc2ccncc2)cc1		inconclusive: -57.3%	
O=C(NCCc1ccccc1)c1ccc2c(c1)OCCCO2		inconclusive: -32.2%	
CN=C(C)C1=C(O)C(C(=O)OC)C(C)(C)CC1=O (stereo not given)	inconclusive: 20.6 µM [cytotoxic, partial curve]		
NCCCC[C@@H](C(=O)N1CCNCC1)n1cc(CN)nn1		inconclusive: 80.3%	
Nc1cc(Nc2ccccc2)ccn1	inconclusive: 3.66 µM [falling, single point]		
Cc1ccc(COc2ccc(C(=O)NN)cc2)cc1		inconclusive: 21.3%	
COc1cc(/C=C2/SC(=S)N(c3c(C)n(C)n(-c4ccccc4)c3=O)C2=O)ccc1O	inconclusive: 3.26 µM [falling, single point]		
COc1ccccc1-c1nc(-c2cccc(C)c2)no1		inconclusive: 63.3%	
CS(=O)(=O)c1ccc2nc(NC(=O)C3COc4ccccc4O3)sc2c1 (stereo not given)	inconclusive: 32.6 µM [falling, single point]		
C/C(=N/NC(=O)c1cccs1)c1ccco1		inconclusive: 214%	
Cc1sc(NC(=S)NC(=O)c2cccs2)nc1-c1ccc(CC(C)C)cc1		inconclusive: -160%	
O=C(Cc1ccccc1)Nc1cccc(-c2nnc(-c3ccco3)o2)c1	inconclusive: 29.1 µM [falling, single point]		
Cc1cccc(C2N=C(N)Nc3nc4ccccc4n32)c1 (stereo not given)		inconclusive: 18.1%	
Cc1c(C(=O)Oc2cccc3cccnc23)oc2ccccc12		inconclusive: 125%	
O=C(OCc1c(F)cccc1Cl)c1cc([N+](=O)[O-])ccc1N1CCOCC1		inconclusive	
CCn1nc(C)c(NC(=O)Nc2cccc(Cl)c2Cl)c1C		inconclusive: 0.0653%	
COc1ccc(C(=O)Nc2nc(-c3ccc(OC)cc3)c(-c3ccc([N+](=O)[O-])cc3)s2)cc1		inconclusive: 15.5%	
COc1ccccc1OCCCc1c(C)n[nH]c1C		inconclusive: 33%	
OC(COc1ccc2c(c1)OCO2)CN1CCN(c2ccc(F)cc2)CC1 (stereo not given)		inconclusive: 5.93%	
CC(=O)c1ccc(NC2=C(N3CCOCC3)C(=O)c3ccccc3C2=O)cc1		inconclusive: 96.2%	
CNc1oc(-c2cccs2)nc1C#N	inconclusive: 14.6 µM [activator, partial curve, poor fit]		
C=CCn1c(-c2ccc(N)cc2)nc2ccccc21	inconclusive: 25.9 µM [activator, single point]		
COc1ccc(N2CCN(C(=O)c3cn(C)c(=O)c4c3c3ccccc3n4C)CC2)cc1		inconclusive: 27.2%	
CC(C)N(Cc1nc(-c2ccccc2)no1)C(=O)C(C)(C)C			inactive [at 46.1 µM]

Fetched by compound from above:
SMILES	Potency	lipid storage change, negative = inhibition	outcome
O=C(Cc1ccccc1)Nc1cccc(-c2nnc(-c3ccco3)o2)c1	inconclusive: 29.1 µM [falling, single point]		
CN=C(C)C1=C(O)C(C(=O)OC)C(C)(C)CC1=O (stereo not given)	inconclusive: 20.6 µM [cytotoxic, partial curve]		
O=C(OCc1c(F)cccc1Cl)c1cc([N+](=O)[O-])ccc1N1CCOCC1		inconclusive	

(listing goes on)

SMILES	Potency	lipid storage change, negative = inhibition	outcome
Cc1ccccc1N(CC(=O)NCc1ccc2c(c1)OCO2)C(=O)CCC(=O)Nc1ccccn1	inconclusive: 1.3 µM [activator, full curve]		
OCCN(Cc1ccccc1)c1ncnc2sccc12	inconclusive: 2.31 µM [activator, partial curve]		
Cc1ccc(/C=N/Nc2ccnc3cc(Cl)ccc23)c(C)c1	inconclusive: 5.8 µM [cytotoxic, full curve]		
Cc1cc(N2C(=O)CC(N3CCN(C(c4ccccc4)c4ccccc4)CC3)C2=O)no1 (stereo not given)		inconclusive: 0.272%	
Cc1c(C(=O)O)sc2nc3n(c(=O)c12)CCC3		inconclusive: -33.1%	
COC(=O)c1ccc(N2C(=O)CC(NCc3ccccc3)C2=O)cc1 (stereo not given)	inconclusive: 7.31 µM [falling, partial curve, poor fit]		
CC(=O)NNc1cc(C)nc(NS(=O)(=O)c2ccc(C)cc2)n1		inconclusive: 47.1%	
COc1ccc(C)cc1NC(=O)Nn1cnnc1	inconclusive: 1.3 µM [falling, partial curve]		
Cc1ccccc1C(=O)N1CCC(C(=O)N2CCN(c3ncccn3)CC2)CC1		inconclusive: 58.5%	
CCN(CC(=O)Nc1c(F)cccc1F)C(=O)c1ccc2ccccc2n1		inconclusive: -100%	
CCN1CCN(C(=O)c2ccc(Cl)c(S(=O)(=O)N3CCCCCC3)c2)CC1		inconclusive: 35.1%	
CC(C)c1ccc(NC(=O)CCCN2C(=O)NC(C)(C)C2=O)cc1	inconclusive: 1.46 µM [activator, partial curve]		
COc1ccccc1CCN=C(N)NS(=O)(=O)c1ccccc1F	inconclusive: 29.1 µM [activator, single point]		
O=C(O)c1cc(N/N=C/c2ccc(OCc3ccccc3)cc2)ccc1Cl	inconclusive: 0.184 µM [falling, full curve, poor fit]		
O=C(NCC(=O)N1CCCCCC1)c1ccc(Br)cc1	inconclusive: 6.51 µM [activator, single point]		
Cn1cc(Br)c(C(=O)N2CCc3ccccc32)n1		inconclusive: 22.4%	
O=C(COC(=O)c1cc(Br)ccc1O)NCC1CCCO1 (stereo not given)		inconclusive: 43.1%	
COCCNC(=O)c1ccc2c(c1)S(=O)(=O)c1cc(Cl)ccc1C2=O	active: 5.8 µM		
C=CCOC(=O)C1=C(C)NC2(O)c3ccccc3C(=O)C12O (stereo not given)	inconclusive: 0.731 µM [falling, full curve]		
Cc1cc(O)ccc1-c1cnc2ccccc2n1		inconclusive: 63.8%	
CCc1cc(Cn2nc(-c3ccccc3)cc2C(=O)NCCOC)on1	inconclusive: 25.9 µM [activator, single point]		
COc1cc(NC(=O)C2CCCCC2)c(OC)cc1NC(=O)CN1CCCCC1		inconclusive: 34.4%	
CCCCn1c(N)c(N(CC(C)C)C(=O)c2oc3ccc(Br)cc3c2C)c(=O)[nH]c1=O		inconclusive: 18.3%	
O=C(O)c1ccc(NC(CSCc2ccccc2F)C(=O)O)c([N+](=O)[O-])c1 (stereo not given)		inconclusive: -2.24%	
Nc1nonc1C(=O)NCCNC(=O)c1cccc(Cl)c1		inconclusive: -23.5%	
